These are yes or no findings as the source states them, for the method shown. Binding seen in cells or lysates may run through a third protein. Some binding calls cover weakened binding; strength is not graded here.

The chains behind the UniProt entries cited, without tags or fusion partners. Residues count along the entry.
UniProt P63038, residues 27-573: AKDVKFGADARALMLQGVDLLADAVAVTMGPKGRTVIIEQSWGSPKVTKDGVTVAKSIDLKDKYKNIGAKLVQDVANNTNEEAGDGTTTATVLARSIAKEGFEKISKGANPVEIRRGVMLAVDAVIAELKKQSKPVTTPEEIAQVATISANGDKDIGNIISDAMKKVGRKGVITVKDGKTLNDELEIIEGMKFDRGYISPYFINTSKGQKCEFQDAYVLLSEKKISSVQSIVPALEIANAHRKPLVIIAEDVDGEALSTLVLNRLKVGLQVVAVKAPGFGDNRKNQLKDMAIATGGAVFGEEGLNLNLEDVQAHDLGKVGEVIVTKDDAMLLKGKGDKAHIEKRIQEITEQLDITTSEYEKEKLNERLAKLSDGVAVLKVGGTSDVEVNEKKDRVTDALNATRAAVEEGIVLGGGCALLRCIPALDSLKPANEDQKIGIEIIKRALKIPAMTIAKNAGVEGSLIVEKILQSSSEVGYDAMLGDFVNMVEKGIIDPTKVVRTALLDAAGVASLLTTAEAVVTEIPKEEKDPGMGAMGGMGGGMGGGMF

In publication PMC7147001 one finds binding data, which are given here for one molecule.

For experiment [1], the target named is Myc-tagged HSP60 (mouse, full length), overexpressed (mouse) (UniProt P63038). The experiment in a line: co-IP; overexpressed HSP60 with endogenous AdipoR1 in H9c2 cells or endogenous AdipoR2 in HepIR cells; western blot; done as in ref. 6. On the technique in general: In western blotting, separated proteins are transferred to a membrane and probed.
For experiment [2], the target named is GST-HSP60 (heat shock protein 60, mouse, full length, GST fusion) (mouse) (UniProt P63038). The experiment in a line: pull-down; GST-HSP60 or GST control as bait; endogenous AdipoR1 from H9c2 cells or AdipoR2 from HepIR cells, detected by western blot; done as in ref. 6; only the target purified.

B1: Adiponectin receptor 2 (AdipoR2), endogenous in HepIR cells (receptor, UniProt Q8BQS5 1-386)
chain: MNEPAKHRLGCTRTPEPDIRLRKGHQLDDTRGSNNDNYQGDLEPSLETPVCSSYYENSPEEPECHDDNSQEDEGFMGMSPLLQAHHAMERMEEFVCKVWEGRWRVIPHDVLPDWLKDNDFLLHGHRPPMPSFRACFKSIFRIHTETGNIWTHLLGCVFFLCLGIFYMFRPNISFVAPLQEKVVFGLFFLGAILCLSFSWLFHTVYCHSEGVSRLFSKLDYSGIALLIMGSFVPWLYYSFYCNPQPCFIYLIVICVLGIAAIIVSQWDMFATPQYRGVRAGVFVGLGLSGIIPTLHYVISEGFLKAATIGQIGWLMLMASLYITGAALYAARIPERFFPGKCDIWFHSHQLFHIFVVAGAFVHFHGVSNLQEFRFMIGGGCTEEDAL
Turning to B1, the binding entry in experiment [1] and in experiment [2] was “binds” each time.
